Reference: publication PMC10167262
These are yes or no findings as the source states them, for the method shown. In cells and extracts the contact can be indirect. Some binding calls cover weakened binding; strength is not graded here.

Sequences of proteins named here, by UniProt entry; tags and fusion partners are left off.
UniProt P12956: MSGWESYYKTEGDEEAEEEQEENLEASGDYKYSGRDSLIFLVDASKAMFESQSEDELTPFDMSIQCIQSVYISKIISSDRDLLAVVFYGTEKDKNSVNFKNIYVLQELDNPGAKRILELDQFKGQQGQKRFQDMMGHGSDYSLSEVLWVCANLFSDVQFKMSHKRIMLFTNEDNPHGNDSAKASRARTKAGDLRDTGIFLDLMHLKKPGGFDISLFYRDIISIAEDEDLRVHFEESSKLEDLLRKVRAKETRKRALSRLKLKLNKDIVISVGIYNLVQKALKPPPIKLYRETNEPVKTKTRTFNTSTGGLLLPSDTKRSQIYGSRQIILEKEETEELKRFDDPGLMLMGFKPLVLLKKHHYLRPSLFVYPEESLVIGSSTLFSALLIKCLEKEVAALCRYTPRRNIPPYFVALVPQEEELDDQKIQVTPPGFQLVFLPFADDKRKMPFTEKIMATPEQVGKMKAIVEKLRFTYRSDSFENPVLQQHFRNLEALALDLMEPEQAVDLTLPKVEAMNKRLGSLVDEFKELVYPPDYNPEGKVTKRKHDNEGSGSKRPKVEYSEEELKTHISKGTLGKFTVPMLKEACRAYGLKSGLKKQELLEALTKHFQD

Biological target: Ku70 (human (endogenous in MDA-MB-231)) (UniProt P12956)
Assay: co-IP; endogenous proteins; cells lysed in NETN buffer (20 mM Tris-HCl pH 8.0, 100 mM NaCl, 0.5% NP-40); immunoprecipitation with CXorf56 protein or Ku70 antibody, overnight at 4 °C, agarose beads; immunoblot; also MDA-MB-231 cells synchronized with nocodazole and released, without or with IR (2 Gy, 1 hour)

Question: “CXorf56 protein (from UniProt Q9H5V9 1-222)” was tested. Which binding did it give?
Answer: binds
